No constants are given. Whether binding was seen depends on the method and setting. Binding seen in cells or lysates may run through a third protein. These calls come from enrichment with a bait or labelling near it, and not all partners need be listed.
Molecular target: Ring finger protein 183 (RNF183), Flag-tagged (UniProt Q96D59)
Assay: affinity purification with mass spectrometry; HPC cells in normal glucose transfected with PCMV3-Flag-RNF183 or PCMV3-Flag; Co-IP with anti-Flag M2 affinity gel, then LC-MS/MS on a Q Exactive mass spectrometer

Sequences of proteins named here, by UniProt entry; tags and fusion partners are left off.
UniProt Q96D59: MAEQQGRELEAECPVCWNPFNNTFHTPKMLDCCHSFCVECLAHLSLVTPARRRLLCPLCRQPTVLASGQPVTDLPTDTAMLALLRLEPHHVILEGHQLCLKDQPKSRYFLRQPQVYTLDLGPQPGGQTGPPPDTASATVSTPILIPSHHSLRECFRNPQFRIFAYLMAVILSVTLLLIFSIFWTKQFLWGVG
UniProt P14618: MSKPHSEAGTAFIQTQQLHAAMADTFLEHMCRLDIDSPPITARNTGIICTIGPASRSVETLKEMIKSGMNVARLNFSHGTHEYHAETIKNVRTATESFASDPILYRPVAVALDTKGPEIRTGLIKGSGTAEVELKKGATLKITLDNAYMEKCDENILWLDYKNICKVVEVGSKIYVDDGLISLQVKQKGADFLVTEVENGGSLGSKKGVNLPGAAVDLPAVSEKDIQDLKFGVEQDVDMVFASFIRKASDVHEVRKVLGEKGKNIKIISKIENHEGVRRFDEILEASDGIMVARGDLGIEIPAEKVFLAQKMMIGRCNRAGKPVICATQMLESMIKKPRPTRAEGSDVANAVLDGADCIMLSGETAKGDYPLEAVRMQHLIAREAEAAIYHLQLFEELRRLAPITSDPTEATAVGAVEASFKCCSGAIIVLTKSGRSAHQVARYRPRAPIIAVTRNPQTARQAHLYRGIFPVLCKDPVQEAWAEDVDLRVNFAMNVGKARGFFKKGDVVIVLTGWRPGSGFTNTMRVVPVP

Substance: M2 pyruvate kinase (PKM2) (from UniProt P14618 1-531)
- binding: binds

From article PMC11899265
